# Test results: article doi:10.1101/209874
# No constants are given. Whether binding was seen depends on the method and setting. Binding can be weak; no strength is given. Sequences can lack the tags named with a protein. For some assays here: Binding seen in cells or lysates may run through a third protein.
# Assays:
# [1] = molecular target: T1, YFP-Arabidopsis eIF(iso)4E (Arabidopsis thaliana) (UniProt O04663); assay: co-IP
# T1 sequence: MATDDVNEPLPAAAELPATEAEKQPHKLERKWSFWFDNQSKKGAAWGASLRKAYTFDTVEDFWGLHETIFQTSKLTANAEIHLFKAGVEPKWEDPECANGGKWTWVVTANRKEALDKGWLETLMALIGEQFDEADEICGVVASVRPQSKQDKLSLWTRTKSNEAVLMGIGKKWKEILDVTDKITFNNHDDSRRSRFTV
# [2] = molecular target: T2, Arabidopsis thaliana eIF(iso)4E-BD (LexA DNA-binding domain fusion) (Arabidopsis thaliana) (UniProt O04663); assay: two-hybrid
# T2 sequence: T1 sequence
substance,measurement,setting,value
6xHIS-TuMV VPg-6xHIS-3xFLAG (Turnip mosaic virus (TuMV)),binding,[1],binds
TuMV VPg-AD (B42 activation domain fusion) (Turnip mosaic virus (TuMV)),binding,[2],binds
